In PMC8539145, “Function and Characterization Analysis of BodoOBP8 from Bradysia odoriphaga (Diptera: Sciaridae) in the Recognition of Plant Volatiles and Sex Pheromones” (Insects, 2021) one finds Ki data, which are given here for one compound.

The chains behind the UniProt entries cited, without tags or fusion partners. Residues count along the entry.
UniProt A0A2S0X9G3, 18-144 limits assumed: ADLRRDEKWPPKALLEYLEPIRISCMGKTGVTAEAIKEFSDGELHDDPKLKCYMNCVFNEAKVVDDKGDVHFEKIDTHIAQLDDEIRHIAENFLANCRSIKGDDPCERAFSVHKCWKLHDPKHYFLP

The source holds more than one record for some entries. Only these are listed. There may be further records. Results that share an entry differ for a reason that is not stated; they may come from other doses, times, organisms or constructs than stated.

The target of this assay is BodoOBP8 (Bradysia odoriphaga, UniProt A0A2S0X9G3). Kind of assay: Fluorescence competitive binding assay (1-NPN probe) with recombinant BodoOBP8. To be noted: calculated from IC50 of 1-NPN displacement, listed as methyl allyl disulfide.

One may read the Ki as the equilibrium dissociation constant of an inhibitor or competing ligand from its target. With `C=CCSSC` [Methyl allyl disulfide], the Ki is 4.04 µM and < 10 µM.
